No constants are given. Whether binding was seen depends on the method and setting. Binding seen in cells or lysates may run through a third protein. These calls come from enrichment with a bait or labelling near it, and not all partners need be listed.
B1: OMA-1 (protein, UniProt G5EC86 1-407)
chain: MNVNGENNEKIDEHHLESSLAGVPTLPVSPLDHAKDLSQTNPNAQIGDLVTQTANLIAIKKQLLEDIAFNQHIQSMQVRAIQSFPQNNQVAPPFQQFDPRRRGLARMQKPESYKTVICQAWLESKTCSFADNCRFAHGEEELRPTFVEPLQNNKYKTKLCDKYTTTGLCPYGKRCLFIHPDHGPNAYIRADKLLEVSQRHALADIRDQMEQHIMTNGRIAAPPLSAIQHPLEMFARPSTPDEPAAKLPLGPTPVSTRGPRYELPTKELHDAEGAMTYPPSRWPLDPSMFALDAWNMAHRPASPLDSMVLGSAPNAGSFGMLGKQNTPGGVSGYSSAGSTPSQDLSSSSLNAASAAAAAAYFANSAVAQSLLMKSVATDPMMSCNGPFSPMPGFDQLAENMTKHLNLW
B2: MEG-2 (protein, UniProt Q21127 1-819)
chain: MENCDDLSSDENLPPPGDHRREQSQERARVGNRDESVSSTNMRSIGGAVHNQQQLYWTDMYNGSNNLENFWLCFSGNTSLADDPTVQSDSSASTQSRTNQSGTIAQETDNRNASNFPPRSTTRRGQTYESRDESQGGQAPSHQNQVPGVDRDEYAGDRSNVSINLPSVDQWREYSFSDNSFQGESRTVQRRSSRATHRVKNQFGSIGDGRTSNNTSLQEPVIQDTRNRNRSESSSTMSSQSRTEHAPIFRLQYNYQREADNRSSRLVQIQGHSAPNNANGLQNTGGQAPDIGPEVNGQSSDTRAMNMGNQMAQGDSHVPMNFVPRPLSNGVPRLHGVPRLVDMYDYELAQRAHARRYPTSNMPYGFPNAGFQAPPHMGLWPNNQNADTRAMNMDNRSRDRTFQMPPANAQVPTSSLSGLFNSSINHGSGNQQFQMGQSSSGSAPQLPALPENFLMAHANSQIPTSSLSGLFNAMNHGSGNRMNHSSSGPAPQLPNLPESFLMAHGIGQVETRSPAGPSNSSINHGSGNQQFPVQQSSSRPAPQLPNLPESFLMAHGLSQIQTSSTAGPSNSSMNHGSGNQQFRMGQSSSRPAPQLPSLQESFLMAHGIAQVETSSTAGPSNSSMNHGSGNQQFPVQQSSSRPAPHLPDLIRQEEEFLNTLEFEQFARRLYNDLLPGVDPNYDSGTSTSETPVLKFSITLKAMLYDYWRTMVQMQYRGANINFLQSIINLNARSAALNSSNARASGSADVQNQTVSATVEGADDASANVNALSDLLAQSFPRQAEGEASRRNDIDHPEDDLNQADSPKSDNQSDKDPPSN
B3: DCP2^DCAP-2 (protein, UniProt O62255 1-786)
chain: MEISTENWCKKPKNRSIFSKNISFQKQNKSTEEPPSSVQKLLASLQQAQNKSDLSEQPSTSKPKKNEKRKKAVAQAPASAPAPGPEEKKKQPKRASVGARMQQQAENARISQTKRPRQVSTSKGSSRNTTAPEQQNYQQQQQQYKGPRIPTDILDELEFRFISNMVECEINDNIRVCFHLELAHWYYIDHMVEDDKISGCPNVGSRDFNFQMCQHCRVLRKYAHRADEVLAKFREYKSTVPTYGAILVDPEMDHVVLVQSYFAKGKNWGFPKGKINQAEPPRDAAIRETFEETGFDFGIYSEKEKKFQRFINDGMVRLYLVKNVPKDFNFQPQTRKEIRKIEWFKIDDLPTDKTDELPAYLQGNKFYMVMPFVKDIQIYVQKEKEKLRRRKAEAVQSTPSSSIFSQLFPAQPPPPVPEDATPTRPMYKRLTSEELFSAFKNPPAGEVARPTLPDMSPAVNGLDTLAVLGICTPLKPGASLNEFSGAPQNCPMISEEAGSPADPSAEIGFAMPMDLKQPVVTSDHPWQHHKISDSSAPPQTLESHQGWLDTQLVNTIMHSPNHPLPPTSNSPATPTAVLGHLIGKPIQPQAILPQAATPTALGSAEKPKSSRISLSDNSAFKAISSTQKQSIPKATAAPPSTEKTRSASLSGSSQVVGKPARNLFNSVVSPVSSGIQSIQGDGGAWEDVWFREQLAATTTAGTSISSLAASNQELAMINREETPIEDPYFKQQAYQKAQKAQSLIPACSQWTNSIKLDIDYVVGPLSFWMQQFSTKSPVSGTGPQLP

By UniProt entry, the sequences of proteins in these tests, tags left out. Where a name states a change or a piece, a line headed by the entry shows the natural chain unless it says otherwise.
UniProt Q21126: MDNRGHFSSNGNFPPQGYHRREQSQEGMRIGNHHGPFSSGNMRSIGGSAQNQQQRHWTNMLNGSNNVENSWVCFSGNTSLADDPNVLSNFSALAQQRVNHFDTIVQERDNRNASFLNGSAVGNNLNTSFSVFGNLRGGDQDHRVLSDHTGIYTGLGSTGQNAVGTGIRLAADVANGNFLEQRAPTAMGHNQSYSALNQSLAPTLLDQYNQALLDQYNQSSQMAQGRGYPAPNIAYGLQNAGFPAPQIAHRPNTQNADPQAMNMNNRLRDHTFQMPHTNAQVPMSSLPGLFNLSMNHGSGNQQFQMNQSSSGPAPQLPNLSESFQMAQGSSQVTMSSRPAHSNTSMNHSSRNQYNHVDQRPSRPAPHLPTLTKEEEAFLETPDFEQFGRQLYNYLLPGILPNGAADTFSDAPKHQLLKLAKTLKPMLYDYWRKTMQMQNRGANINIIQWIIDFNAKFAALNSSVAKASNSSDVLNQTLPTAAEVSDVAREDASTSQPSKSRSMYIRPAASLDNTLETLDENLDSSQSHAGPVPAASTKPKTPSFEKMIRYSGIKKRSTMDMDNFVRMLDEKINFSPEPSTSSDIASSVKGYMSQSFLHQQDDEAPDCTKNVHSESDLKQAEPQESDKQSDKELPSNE
UniProt Q20937: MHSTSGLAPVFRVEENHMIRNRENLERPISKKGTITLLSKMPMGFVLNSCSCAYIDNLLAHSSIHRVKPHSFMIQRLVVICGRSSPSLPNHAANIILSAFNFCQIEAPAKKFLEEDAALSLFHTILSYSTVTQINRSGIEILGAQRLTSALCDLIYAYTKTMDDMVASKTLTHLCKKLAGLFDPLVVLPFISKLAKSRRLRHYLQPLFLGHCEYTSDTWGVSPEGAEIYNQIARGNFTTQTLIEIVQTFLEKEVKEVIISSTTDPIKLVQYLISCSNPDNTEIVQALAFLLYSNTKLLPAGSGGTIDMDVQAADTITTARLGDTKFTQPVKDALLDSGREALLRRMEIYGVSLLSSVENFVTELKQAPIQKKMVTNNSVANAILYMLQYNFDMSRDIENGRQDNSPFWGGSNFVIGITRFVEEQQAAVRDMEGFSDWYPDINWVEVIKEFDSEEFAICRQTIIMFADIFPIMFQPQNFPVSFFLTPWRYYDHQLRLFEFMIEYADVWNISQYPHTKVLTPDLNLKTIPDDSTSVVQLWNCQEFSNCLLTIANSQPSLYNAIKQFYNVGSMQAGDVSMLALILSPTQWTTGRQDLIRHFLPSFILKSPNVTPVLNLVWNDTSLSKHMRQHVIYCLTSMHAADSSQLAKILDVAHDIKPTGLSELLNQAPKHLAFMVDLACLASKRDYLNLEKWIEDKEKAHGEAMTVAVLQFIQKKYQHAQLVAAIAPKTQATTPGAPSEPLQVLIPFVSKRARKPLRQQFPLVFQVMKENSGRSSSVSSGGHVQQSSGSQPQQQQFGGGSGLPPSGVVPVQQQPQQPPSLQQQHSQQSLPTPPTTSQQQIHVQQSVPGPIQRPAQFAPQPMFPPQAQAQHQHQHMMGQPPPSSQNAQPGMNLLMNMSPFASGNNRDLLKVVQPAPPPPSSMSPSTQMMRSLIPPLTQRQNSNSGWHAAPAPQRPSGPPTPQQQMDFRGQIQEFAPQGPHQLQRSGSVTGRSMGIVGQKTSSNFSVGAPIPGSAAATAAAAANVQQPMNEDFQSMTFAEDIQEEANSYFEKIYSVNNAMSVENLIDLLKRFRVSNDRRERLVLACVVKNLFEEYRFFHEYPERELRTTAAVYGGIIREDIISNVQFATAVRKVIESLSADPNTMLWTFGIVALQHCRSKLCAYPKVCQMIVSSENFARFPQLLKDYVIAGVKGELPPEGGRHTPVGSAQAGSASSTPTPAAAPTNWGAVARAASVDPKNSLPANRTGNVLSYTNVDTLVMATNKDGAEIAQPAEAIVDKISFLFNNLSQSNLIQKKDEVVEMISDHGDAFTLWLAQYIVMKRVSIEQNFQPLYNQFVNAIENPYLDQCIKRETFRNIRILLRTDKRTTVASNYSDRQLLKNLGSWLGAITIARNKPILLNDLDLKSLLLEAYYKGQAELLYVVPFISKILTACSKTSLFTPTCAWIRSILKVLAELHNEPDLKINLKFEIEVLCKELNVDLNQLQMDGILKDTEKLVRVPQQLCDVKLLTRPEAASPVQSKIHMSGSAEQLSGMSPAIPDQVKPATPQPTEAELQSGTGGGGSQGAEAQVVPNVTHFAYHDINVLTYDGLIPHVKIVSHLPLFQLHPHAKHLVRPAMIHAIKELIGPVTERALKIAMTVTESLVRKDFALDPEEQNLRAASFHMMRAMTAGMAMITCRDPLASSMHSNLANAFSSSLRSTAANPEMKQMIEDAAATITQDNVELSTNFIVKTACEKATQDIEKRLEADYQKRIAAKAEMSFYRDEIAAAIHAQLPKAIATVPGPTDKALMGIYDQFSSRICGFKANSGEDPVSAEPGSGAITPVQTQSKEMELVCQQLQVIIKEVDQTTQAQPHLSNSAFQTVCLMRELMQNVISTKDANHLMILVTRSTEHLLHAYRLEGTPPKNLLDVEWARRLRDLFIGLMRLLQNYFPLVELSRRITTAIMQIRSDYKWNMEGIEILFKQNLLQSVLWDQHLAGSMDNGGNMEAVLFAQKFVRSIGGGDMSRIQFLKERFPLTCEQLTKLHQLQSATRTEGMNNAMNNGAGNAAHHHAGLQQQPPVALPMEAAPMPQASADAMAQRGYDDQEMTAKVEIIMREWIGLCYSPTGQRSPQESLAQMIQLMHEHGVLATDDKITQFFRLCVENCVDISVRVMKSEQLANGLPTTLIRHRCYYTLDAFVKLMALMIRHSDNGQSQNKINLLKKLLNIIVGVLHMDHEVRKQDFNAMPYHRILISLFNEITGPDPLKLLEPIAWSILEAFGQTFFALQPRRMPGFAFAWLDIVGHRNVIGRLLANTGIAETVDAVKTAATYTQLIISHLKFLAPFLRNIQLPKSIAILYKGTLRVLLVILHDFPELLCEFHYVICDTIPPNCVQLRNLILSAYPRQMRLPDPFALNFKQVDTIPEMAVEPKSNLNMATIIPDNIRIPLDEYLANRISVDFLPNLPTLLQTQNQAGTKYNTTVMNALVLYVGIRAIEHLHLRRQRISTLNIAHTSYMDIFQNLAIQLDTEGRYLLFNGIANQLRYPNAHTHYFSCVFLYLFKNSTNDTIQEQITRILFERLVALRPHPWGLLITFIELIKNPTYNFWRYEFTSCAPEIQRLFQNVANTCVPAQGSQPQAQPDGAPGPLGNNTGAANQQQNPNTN
UniProt G5EF15: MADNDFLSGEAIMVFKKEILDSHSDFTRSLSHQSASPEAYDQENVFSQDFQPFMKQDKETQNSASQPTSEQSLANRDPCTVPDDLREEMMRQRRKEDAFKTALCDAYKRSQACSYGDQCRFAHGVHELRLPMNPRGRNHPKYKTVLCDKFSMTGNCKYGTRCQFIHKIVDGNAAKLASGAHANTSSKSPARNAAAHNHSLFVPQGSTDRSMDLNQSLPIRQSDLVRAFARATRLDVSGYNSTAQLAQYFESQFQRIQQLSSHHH
UniProt G5EF02: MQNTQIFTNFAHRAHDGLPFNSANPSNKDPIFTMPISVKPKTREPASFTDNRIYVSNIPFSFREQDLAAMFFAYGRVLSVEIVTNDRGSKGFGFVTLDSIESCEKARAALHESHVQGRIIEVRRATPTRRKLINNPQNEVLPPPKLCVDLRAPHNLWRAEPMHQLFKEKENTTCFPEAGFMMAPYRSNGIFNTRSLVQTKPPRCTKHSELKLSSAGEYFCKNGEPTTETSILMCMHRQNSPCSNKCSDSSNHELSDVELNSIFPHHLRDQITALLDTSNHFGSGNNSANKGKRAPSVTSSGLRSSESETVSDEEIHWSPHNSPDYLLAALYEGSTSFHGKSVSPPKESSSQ

Target: MEG-1::GFP (C. elegans) (UniProt Q21126)
Assay: affinity purification with mass spectrometry

binding, binds:
CNOT1^NTL-1 (from UniProt Q20937), POS-1 (from UniProt G5EF15 1-264), SPN-4 (from UniProt G5EF02), B1, B2, B3
